No constants are given. Whether binding was seen depends on the method and setting. Binding seen in cells or lysates may run through a third protein. Some binding calls cover weakened binding; strength is not graded here. Where a sequence is shown, tags or fusion partners need not be part of it.
Target: T1, Flag-Chinmo (Chronologically Inappropriate Morphogenesis, 3X Flag-tagged) (D. melanogaster) (UniProt Q9VQ30)
T1 sequence: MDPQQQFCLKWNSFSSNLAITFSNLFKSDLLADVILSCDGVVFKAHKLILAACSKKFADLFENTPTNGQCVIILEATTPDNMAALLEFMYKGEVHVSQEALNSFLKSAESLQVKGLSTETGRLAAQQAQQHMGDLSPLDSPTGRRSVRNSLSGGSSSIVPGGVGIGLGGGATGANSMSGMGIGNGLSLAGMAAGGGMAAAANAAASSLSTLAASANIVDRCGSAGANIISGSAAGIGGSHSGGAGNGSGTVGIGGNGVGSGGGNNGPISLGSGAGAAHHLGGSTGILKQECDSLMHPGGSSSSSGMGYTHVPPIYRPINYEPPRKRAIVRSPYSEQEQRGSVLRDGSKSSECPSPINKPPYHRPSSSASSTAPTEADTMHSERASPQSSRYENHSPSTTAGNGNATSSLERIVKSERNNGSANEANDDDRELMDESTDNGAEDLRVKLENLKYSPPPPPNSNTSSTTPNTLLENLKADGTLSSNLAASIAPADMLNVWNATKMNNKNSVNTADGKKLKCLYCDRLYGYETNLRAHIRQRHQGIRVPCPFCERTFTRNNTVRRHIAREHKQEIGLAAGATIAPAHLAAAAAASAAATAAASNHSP
Assay: co-IP; Kc167 cells transfected with Flag-Chinmo and Myc-dSir2, control (fed) and starvation conditions; lysate (Phospho Safe Extraction buffer, protease and deacetylation inhibitors) on anti-Flag M2 affinity gel 3 h at 4°C, washed with 50 mM Tris HCl pH 7.4, 150 mM NaCl, eluted with 3X FLAG peptide; western blot with Myc antibody

- binding: binds
B1: Myc-dSir2 (Drosophila melanogaster Sir2, Myc-tagged) (enzyme, UniProt Q9VK34 1-823)
chain: MMENYEEIRLGHIRSKDLGNQVPDTTQFYPPTKFDFGAEILASTSTEAEAEAEATATTTEPATSELAGKANGEIKTKTLAAREEQEIGANLEHKTKNPTKSMGEDEDDEEEEEEDDEEEEEDDEEGITGTSNEDEDSSSNCSSSVEPDWKLRWLQREFYTGRVPRQVIASIMPHFATGLAGDTDDSVLWDYLAHLLNEPKRRNKLASVNTFDDVISLVKKSQKIIVLTGAGVSVSCGIPDFRSTNGIYARLAHDFPDLPDPQAMFDINYFKRDPRPFYKFAREIYPGEFQPSPCHRFIKMLETKGKLLRNYTQNIDTLERVAGIQRVIECHGSFSTASCTKCRFKCNADALRADIFAQRIPVCPQCQPNKEQSVDASVAVTEEELRQLVENGIMKPDIVFFGEGLPDEYHTVMATDKDVCDLLIVIGSSLKVRPVAHIPSSIPATVPQILINREQLHHLKFDVELLGDSDVIINQICHRLSDNDDCWRQLCCDESVLTESKELMPPEHSNHHLHHHLLHHRHCSSESERQSQLDTDTQSIKSNSSADYILGSAGTCSDSGFESSTFSCGKRSTAAEAAAIERIKTDILVELNETTALSCDRLGLEGPQTTVESYRHLSIDSSKDSGIEQCDNEATPSYVRPSNLVQETKTVAPSLTPIPQQRGKRQTAAERLQPGTFYSHTNNYSYVFPGAQVFWDNDYSDDDDEEEERSHNRHSDLFGNVGHNYKDDDEDACDLNAVPLSPLLPPSLEAHIVTDIVNGSNEPLPNSSPGQKRTACIIEQQPTPAIETEIPPLKKRRPSEENKQQTQIERSEESPPPGQLAAV
